Results: PMC12431657, “Discovery and mechanistic insights of dibenzoylmethane as a broad spectrum inhibitor of coronavirus” (PLOS Pathogens, 2025)
Structures can show the parent of a compound that is named as a salt. Where two headings read alike, the source gives them in different places. In all, about 3,300 compounds went through this assay and about 95 (3%) showed an effect of 50% or more. The list shows a part of the results.

Test system: HCoV-229E
Set-up: species or system Huh-7; HTS, protection from HCoV-229E induced cell death, luminescent cell viability (CellCounting-Lite 2.0), inhibition rate
Conditions: 24 h post infection, 1 h compound pre-incubation, 10 µM, inhibitor

| SMILES | 229E Inhibition rate | 229E Inhibition rate (229E Inhibition rate, 24 h) |
| --- | --- | --- |
| COC(=O)C1=C(O)c2ccccc2C(=O)[C@]1(CC=C(C)C)C1=CC(=O)c2ccccc2C1=O [Rubipodanone A] | 31.1% |  |
| CC(C)C[C@H]1C(=O)O[C@H](Cc2ccccc2)C(=O)N(C)[C@@H](CC(C)C)C(=O)O[C@H](C)C(=O)N(C)[C@@H](CC(C)C)C(=O)O[C@H](Cc2ccccc2)C(=O)N(C)[C@@H](CC(C)C)C(=O)O[C@H](C)C(=O)N1C [PF 1022A] | 4.4% |  |
| O=C(O)/C=C/c1cccc(O)c1 [(E)-m-Coumaric acid] | 44.6% |  |
| O=C(O)CC(=O)C(=O)O [Oxaloacetic acid] | 12.8% |  |
| Nc1ccn([C@H]2C[C@H](O)[C@@H](CO)O2)c(=O)n1 [2'-Deoxycytidine] | 14.3% |  |
| COc1ccc(-c2cc(=O)c3c(OC)c(OC)c(OC)cc3o2)cc1 [Scutellarein tetramethyl ether] | 23.3% |  |
| C=CC(=C)CC/C=C(\C)CCC=C(C)C [(E)-β-Farnesene] | 12.7% |  |
| Cc1ncc(CO)c(C=O)c1O [Pyridoxal hydrochloride] | 31.1% |  |
| COc1cc2oc(=O)ccc2c(OC)c1C[C@@H](O)C(C)(C)O [Toddalolactone] | 9.6% |  |
| C/C=C(\C)C(=O)O[C@@H]1c2cc(OC)c(OC)c(OC)c2-c2c(cc3c(c2OC)OCO3)C[C@H](C)[C@@]1(C)O [Tigloylgomisin P] | 40.2% |  |
| CC(C)=CCC[C@](C)(O[C@@H]1O[C@H](CO[C@@H]2OC[C@H](O)[C@H](O)[C@H]2O)[C@@H](O)[C@H](O)[C@H]1O)[C@H]1CC[C@]2(C)[C@@H]1[C@H](O)C[C@@H]1[C@@]3(C)CC[C@H](O[C@@H]4O[C@H](CO)[C@@H](O)[C@H](O)[C@H]4O[C@@H]4O[C@H](CO)[C@@H](O)[C@H](O)[C@H]4O)C(C)(C)[C@@H]3CC[C@]12C [Ginsenoside Rb2] | 8.6% |  |
| C[C@@H]1O[C@@H](O[C@H]2[C@H](O)[C@@H](O)[C@H](OC[C@H]3O[C@@H](OC(=O)[C@]45CCC(C)(C)C[C@H]4C4=CC[C@@H]6[C@@]7(C)CC[C@H](O[C@@H]8OC[C@H](O)[C@H](O)[C@H]8O)[C@@](C)(CO)[C@@H]7CC[C@@]6(C)[C@]4(C)CC5)[C@H](O)[C@@H](O)[C@@H]3O)O[C@@H]2CO)[C@H](O)[C@H](O)[C@H]1O [Hederacoside D] |  | 40.4% |
| NC(=O)C[C@H](N)C(=O)O [L-Asparagine] | 8.5% |  |
| CC1=CCCC(C)(C)[C@H]1/C=C/C(C)=C/C=C/C(C)=C/C=C/C=C(C)/C=C/C=C(C)/C=C/C1=C(C)CCCC1(C)C [α-Carotene] | 29.7% |  |
| CCCCCCCCCCC(=O)OC [Methyl undecanoate] | 56.2% |  |
| O[C@@H]1[C@@H](O)[C@H](OC/C=C/c2ccccc2)O[C@H](CO[C@@H]2OC[C@H](O)[C@H](O)[C@H]2O)[C@H]1O [Rosavin] | 56.6% |  |
| O=C(/C=C/c1ccc(O)cc1)NCCc1c[nH]c2ccc(O)cc12 [N-(p-Coumaroyl) Serotonin] | 20.1% |  |
| C[C@H](O)[C@@H](O)[C@@H](O)[C@H](O)C=O [(-)-Fucose] | 14.7% |  |
| COc1cc([C@H]2Oc3ccc([C@H]4Oc5cc(O)cc(O)c5C(=O)[C@@H]4O)cc3O[C@@H]2CO)ccc1O [Isosilybin A] | 8.9% |  |

Part of the list above, reformatted:
SMILES | 229E Inhibition rate | 229E Inhibition rate (229E Inhibition rate, 24 h)
COC(=O)C1=C(O)c2ccccc2C(=O)[C@]1(CC=C(C)C)C1=CC(=O)c2ccccc2C1=O [Rubipodanone A] | 31.1% | 
CCCCCCCCCCC(=O)OC [Methyl undecanoate] | 56.2% | 

The list continues:

| SMILES | 229E Inhibition rate | 229E Inhibition rate (229E Inhibition rate, 24 h) |
| --- | --- | --- |
| CCCCCCCCCCCCCCCCCCCCCC(=O)O [Docosanoic acid] | 3.6% |  |
| NCCCCCC(=O)O [6-Aminocaproic acid] | 7.9% |  |
| C=C[C@H]1CN2CC[C@H]1C[C@@H]2[C@@H](O)c1ccnc2ccc(OC)cc12 [Quinidine] |  | 36.6% |
| C[C@@H]1CC[C@@]2(OC1)O[C@H]1C[C@H]3[C@@H]4CC=C5C[C@@H](O)CC[C@]5(C)[C@H]4CC[C@]3(C)[C@H]1[C@@H]2C [Diosgenin] | 42.1% |  |
| O=C(c1ccccc1)c1ccccc1 [Benzophenone] | 0% |  |
| CC(C)=CCC[C@](C)(O)[C@H]1CC[C@]2(C)[C@@H]1[C@H](O)C[C@@H]1[C@@]3(C)CC[C@H](O)C(C)(C)[C@@H]3[C@@H](O)C[C@]12C [(20S)-Protopanaxatriol] | 10% |  |
| NCC(O)c1ccc(O)cc1 (stereo not shown) [Octopamine (hydrochloride)] | 41.3% |  |
| COc1ccc(-c2cc(=O)c3c(O)cc(O[C@@H]4O[C@H](C(=O)O)[C@@H](O)[C@H](O)[C@H]4O)cc3o2)cc1O [DiosMetin 7-O-β-D-Glucuronide] | 23% |  |
| O=c1cc(-c2ccccc2)c2c(O)cc(O)cc2o1 [LC3-mHTT-IN-AN2] | 50.8% |  |
| C[S+](CC[C@H](N)C(=O)[O-])C[C@H]1O[C@@H](n2cnc3c(N)ncnc32)[C@H](O)[C@@H]1O (stereo partly drawn) [S-Adenosyl-L-methionine (tosylate)] | 10.1% |  |
| OCCc1ccccc1 [2-Phenylethanol] | 9.3% |  |
| CCCCC/C=C\C/C=C\C/C=C\CCCCC(=O)O [Gamma-Linolenic acid] | 44.5% |  |
| CC(C)=CCC[C@@](C)(O)[C@H]1CC[C@]2(C)[C@@H]1[C@H](O)C[C@@H]1[C@@]3(C)CC[C@H](O)C(C)(C)[C@@H]3CC[C@]12C [(20R)-Protopanaxadiol] | 7.2% |  |
| OC[C@H]1O[C@@H](Oc2c(O)cc(O)cc2/C=C/c2ccc(O)cc2)[C@H](O)[C@@H](O)[C@@H]1O [2,3,5,4'-Tetrahydroxystilbene 2-O-β-D-glucoside] | 20.8% |  |
| CC1=C[C@]23C(=O)[C@@H](C=C4COC(C)(C)O[C@H]4C2(O)[C@H]1O)[C@H]1[C@@H](C[C@H]3C)C1(C)C (stereo partly shown) [Ingenol-5,20-acetonide] | 3.3% |  |
| CCCC(N)C(=O)O (racemic) [DL-Norvaline] | 14.1% |  |
| O=C(O)c1ccc2c(c1)OCO2 [Piperonylic acid] | 22.5% |  |
| O=c1ccc2cc(O[C@@H]3O[C@H](CO)[C@@H](O)[C@H](O)[C@H]3O)c(O)cc2o1 [Esculin] | 8.8% |  |
